No constants are given. Whether binding was seen depends on the method and setting. Binding seen in cells or lysates may run through a third protein. Some results given as binding are weak or reduced against the parent protein; the word gives no strength.

Chains of the proteins cited; added tags and fusions are not shown.
UniProt Q8WZA2: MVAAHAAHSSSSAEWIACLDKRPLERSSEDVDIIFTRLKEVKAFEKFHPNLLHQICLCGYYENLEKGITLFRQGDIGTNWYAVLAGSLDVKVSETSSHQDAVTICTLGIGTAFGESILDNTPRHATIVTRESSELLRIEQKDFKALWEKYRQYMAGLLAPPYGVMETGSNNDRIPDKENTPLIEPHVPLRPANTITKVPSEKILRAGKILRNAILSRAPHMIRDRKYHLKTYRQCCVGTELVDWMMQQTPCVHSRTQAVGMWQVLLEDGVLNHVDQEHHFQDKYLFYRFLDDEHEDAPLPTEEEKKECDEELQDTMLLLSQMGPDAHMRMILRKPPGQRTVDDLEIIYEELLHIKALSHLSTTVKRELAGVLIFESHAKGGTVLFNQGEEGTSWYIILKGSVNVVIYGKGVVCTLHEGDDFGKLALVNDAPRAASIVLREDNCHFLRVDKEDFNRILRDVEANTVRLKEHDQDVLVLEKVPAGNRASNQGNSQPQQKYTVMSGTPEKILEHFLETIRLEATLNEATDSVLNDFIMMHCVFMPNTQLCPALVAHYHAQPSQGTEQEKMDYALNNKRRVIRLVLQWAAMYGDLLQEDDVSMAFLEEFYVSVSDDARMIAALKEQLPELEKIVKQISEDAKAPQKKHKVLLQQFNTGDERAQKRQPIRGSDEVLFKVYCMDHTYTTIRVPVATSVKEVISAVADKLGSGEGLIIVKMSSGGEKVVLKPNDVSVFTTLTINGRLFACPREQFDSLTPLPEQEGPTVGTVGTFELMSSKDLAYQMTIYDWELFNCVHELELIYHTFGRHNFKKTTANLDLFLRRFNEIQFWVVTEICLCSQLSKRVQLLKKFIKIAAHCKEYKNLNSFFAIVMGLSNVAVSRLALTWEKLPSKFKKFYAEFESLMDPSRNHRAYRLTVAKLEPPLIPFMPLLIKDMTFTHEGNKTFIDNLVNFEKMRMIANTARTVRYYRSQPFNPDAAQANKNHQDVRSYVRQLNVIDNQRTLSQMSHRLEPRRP

The target of this assay is T1, RNA methyltransferase nucleolar protein p120 (NOP2) (human) (UniProt P46087).
T1 sequence: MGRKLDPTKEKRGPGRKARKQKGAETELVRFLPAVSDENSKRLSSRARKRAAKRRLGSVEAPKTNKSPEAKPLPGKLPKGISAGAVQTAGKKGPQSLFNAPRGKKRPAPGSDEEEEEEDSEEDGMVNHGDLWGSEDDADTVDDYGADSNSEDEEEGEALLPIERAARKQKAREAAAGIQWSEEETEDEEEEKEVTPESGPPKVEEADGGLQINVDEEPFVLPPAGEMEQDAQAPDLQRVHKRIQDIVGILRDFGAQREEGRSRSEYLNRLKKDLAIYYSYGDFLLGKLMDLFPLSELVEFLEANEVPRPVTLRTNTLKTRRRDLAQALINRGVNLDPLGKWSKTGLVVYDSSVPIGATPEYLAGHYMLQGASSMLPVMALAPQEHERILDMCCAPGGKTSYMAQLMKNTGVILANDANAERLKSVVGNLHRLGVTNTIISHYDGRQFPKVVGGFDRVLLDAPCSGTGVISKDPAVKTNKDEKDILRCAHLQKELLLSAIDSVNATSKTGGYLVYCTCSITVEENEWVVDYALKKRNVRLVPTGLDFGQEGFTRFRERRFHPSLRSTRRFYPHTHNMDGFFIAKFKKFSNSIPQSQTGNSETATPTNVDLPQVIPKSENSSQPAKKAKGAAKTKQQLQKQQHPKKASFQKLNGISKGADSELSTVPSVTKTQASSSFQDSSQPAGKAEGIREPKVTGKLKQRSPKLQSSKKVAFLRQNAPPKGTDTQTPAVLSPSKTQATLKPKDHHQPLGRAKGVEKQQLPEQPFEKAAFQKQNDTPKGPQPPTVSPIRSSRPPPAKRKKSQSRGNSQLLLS
Briefly: co-IP; lysate of Hey cells overexpressing NOP2 and RAPGEF4; anti-NOP2 antibody (ab271075, 1:30) on Protein A+G magnetic beads, incubated overnight at 4°C; detected by Western blot.

On to “Rap guanine nucleotide exchange factor 4 (RAPGEF4) (from UniProt Q8WZA2 1-1011)”, for which the binding result is on record as “binds”.

These data come from article PMC10561575.
